Laboratory results as given in patent US5726177A, “Indole-derived arylpiperazines as ligands for 5HT1 -like, 5HT1B and 5HT1D receptors” (Pierre Fabre Medicament, priority 1993, dated 1998).
Structures can show the parent of a compound that is named as a salt. At least one structure is not confirmed: it was looked up by name or label, or the drawing left a doubt.

Test system: 5-HT1D receptors
Assay: Affinity for 5-HT1D receptors (3H-5HT binding, sheep caudate membranes)
Procedure: STUDY OF THE AFFINITY FOR 5-HT1D RECEPTORS
This study is carried out according to the technique described by Pauwells et al. (Biochem. Pharmacol, 46, 535-538, 1993).
Preparation of the membranes
Sheep brains are removed in the local abattoir and transported in ice. The caudate nuclei are removed, weighed and homogenized with a Polytron for 20 sec (speed 6-7) in 20 volumes of Tris-HCl 50 mM, pH 7.7. The homogenate is centrifuged for 10 min at 48,000 g with an L5 50E centrifuge (Beckman).
The pellet, taken up in 20 volumes of Tris-HCl 50 mm, pH 7.7, is placed in a water bath at 37° C. for 10 min and then recentrifuged for 10 min at 48,000 g. The pellet then obtained is immediately frozen in fractions containing 0.5g of tissue.
The pellet is defrosted and homogenized with a Dounce in 80 volumes of Tris-HCl 50 mM, pH 7.7, containing 4 mM CaCl2, 10 μM of pargyline and 0.1% of ascorbic acid.
Affinity is produced at 25° C. by incubating for 30 min:
0.1 ml of buffer or 10 μM, as final concentration, of sumatriptan, in order to obtain the non-specific binding […]
The incubation is brought to an end by rapid filtration through GF/B filters and rinsing with 3 times 3 [illegible] ice-cold buffer, using a harvester manufactured by Brandel which makes it possible [illegible] to filter [illegible]samples. […] [illegible] scintillant (Packard) and the radioactivity measured with a Tri-carb 4640 counter (Packard). […]

`NCCc1c[nH]c2ccc(OCC(=O)N3CCN(c4ccc(N(S(=O)(=O)c5cccs5)S(=O)(=O)c5cccs5)cc4)CC3)cc12` [Example 9, N-[4-(4-{2-[3-(2-Aminoethyl)-1H-indol-5-yl-oxy]acetyl}piperazin-1-yl)phenyl](thiophene-2-sulfonyl)-thiophene-2-sulfonamide hydrochloride] was tested, and the “Ratio 1A/1D (ratio of the IC50 values for the 5HT1A and 5HT1D receptors)” value (selectivity 5-HT1D over 5-HT1A) was 8 and the IC50 (sheep caudate nuclei membranes, 3H-5HT, 25° C., 30 min) was 5 nM.
